Measurements as given in US11065203B2, “Liposomal compositions and uses of same” (Technion Research & Development Foundation Limited, priority 2009, dated 2021).

B1: P21291 (protein, UniProt P21291 1-193, looked up)
chain: MPNWGGGKKCGVCQKTVYFAEEVQCEGNSFHKSCFLCMVCKKNLDSTTVAVHGEEIYCKSCYGKKYGPKGYGYGQGAGTLSTDKGESLGIKHEEAPGHRPTTNPNASKFAQKIGGSERCPRCSQAVYAAEKVIGAGKSWHKACFRCAKCGKGLESTTLADKDGEIYCKGCYAKNFGPKGFGFGQGAGALVHSE
modifications: full-length
B2: P15313 (protein, UniProt P15313 1-513, looked up)
chain: MAMEIDSRPGGLPGSSCNLGAAREHMQAVTRNYITHPRVTYRTVCSVNGPLVVLDRVKFAQYAEIVHFTLPDGTQRSGQVLEVAGTKAIVQVFEGTSGIDARKTTCEFTGDILRTPVSEDMLGRVFNGSGKPIDKGPVVMAEDFLDINGQPINPHSRIYPEEMIQTGISPIDVMNSIARGQKIPIFSAAGLPHNEIAAQICRQAGLVKKSKAVLDYHDDNFAIVFAAMGVNMETARFFKSDFEQNGTMGNVCLFLNLANDPTIERIITPRLALTTAEFLAYQCEKHVLVILTDMSSYAEALREVSAAREEVPGRRGFPGYMYTDLATIYERAGRVEGRGGSITQIPILTMPNDDITHPIPDLTGFITEGQIYVDRQLHNRQIYPPINVLPSLSRLMKSAIGEGMTRKDHGDVSNQLYACYAIGKDVQAMKAVVGEEALTSEDLLYLEFLQKFEKNFINQGPYENRSVFESLDLGWKLLRIFPKEMLKRIPQAVIDEFYSREGALQDLAPDTAL
modifications: full-length
B3: P80723 (protein, UniProt P80723 1-227, looked up)
chain: MGGKLSKKKKGYNVNDEKAKEKDKKAEGAATEEEGTPKESEPQAAAEPAEAKEGKEKPDQDAEGKAEEKEGEKDAAAAKEEAPKAEPEKTEGAAEAKAEPPKAPEQEQAAPGPAAGGEAPKAAEAAAAPAESAAPAAGEEPSKEEGEPKKTEAPAAPAAQETKSDGAPASDSKPGSSEAAPSSKETPAATEAPSSTPKAQGPAASAEEPKPVEAPAANSDQTVTVKE
modifications: full-length
B4: Q9NSE4 (protein, UniProt Q9NSE4 1-1012, looked up)
chain: MRWGLRPRGPGAAALATARSLWGTPRLPCSPGWQGATKRLLVRSVSGASNHQPNSNSGRYRDTVLLPQTSFPMKLLGRQQPDTELEIQQKCGFSELYSWQRERKVKTEFCLHDGPPYANGDPHVGHALNKILKDIANRFHMMNGSKIHFVPGWDCHGLPIEIKVLSELGREAQNLSAMEIRKKARSFAKAAIEKQKSAFIRWGIMADWNNCYYTFDGKYEAKQLRTFYQMYDKGLVYRSYKPVFWSPSSRTALAEAELEYNPEHVSRSIYVKFPLLKPSPKLASLIDGSSPVSILVWTTQPWTIPANEAVCYMPESKYAVVKCSKSGDLYVLAADKVASVASTLETTFETISTLSGVDLENGTCSHPLIPDKASPLLPANHVTMAKGTGLVHTAPAHGMEDYGVASQHNLPMDCLVDEDGVFTDVAGPELQNKAVLEEGTDVVIKMLQTAKNLLKEEKLVHSYPYDWRTKKPVVIRASKQWFINITDIKTAAKELLKKVKFIPGSALNGMVEMMDRRPYWCISRQRVWGVPIPVFHHKTKDEYLINSQTTEHIVKLVEQHGSDIWWTLPPEQLLPKEVLSEVGGPDALEYVPGQDILDIWFDSGTSWSYVLPGPDQRADLYLEGKDQLGGWFQSSLLTSVAARKRAPYKTVIVHGFTLGEKGEKMSKSLGNVIHPDVVVNGGQDQSKEPPYGADVLRWWVADSNVFTEVAIGPSVLNAARDDISKLRNTLRFLLGNVADFNPETDSIPVNDMYVIDQYMLHLLQDLANKITELYKQYDFGKVVRLLRTFYTRELSNFYFSIIKDRLYCEKENDPKRRSCQTALVEILDVIVRSFAPILPHLAEEVFQHIPYIKEPKSVFRTGWISTSSIWKKPGLEEAVESACAMRDSFLGSIPGKNAAEYKVITVIEPGLLFEIIEMLQSEETSSTSQLNELMMASESTLLAQEPREMTADVIELKGKFLINLEGGDIREESSYKVIVMPTTKEKCPRCWKYTAESSDTLCPRCAEVVSGK
modifications: full-length
B5: Q9UBS4 (protein, UniProt Q9UBS4 1-358, looked up)
chain: MAPQNLSTFCLLLLYLIGAVIAGRDFYKILGVPRSASIKDIKKAYRKLALQLHPDRNPDDPQAQEKFQDLGAAYEVLSDSEKRKQYDTYGEEGLKDGHQSSHGDIFSHFFGDFGFMFGGTPRQQDRNIPRGSDIIVDLEVTLEEVYAGNFVEVVRNKPVARQAPGKRKCNCRQEMRTTQLGPGRFQMTQEVVCDECPNVKLVNEERTLEVEIEPGVRDGMEYPFIGEGEPHVDGEPGDLRFRIKVVKHPIFERRGDDLYTNVTISLVESLVGFEMDITHLDGHKVHISRDKITRPGAKLWKKGEGLPNFDNNNIKGSLIITFDVDFPKEQLTEEAREGIKQLLKQGSVQKVYNGLQGY
modifications: full-length
B6: P62879 (protein, UniProt P62879 1-340, looked up)
chain: MSELEQLRQEAEQLRNQIRDARKACGDSTLTQITAGLDPVGRIQMRTRRTLRGHLAKIYAMHWGTDSRLLVSASQDGKLIIWDSYTTNKVHAIPLRSSWVMTCAYAPSGNFVACGGLDNICSIYSLKTREGNVRVSRELPGHTGYLSCCRFLDDNQIITSSGDTTCALWDIETGQQTVGFAGHSGDVMSLSLAPDGRTFVSGACDASIKLWDVRDSMCRQTFIGHESDINAVAFFPNGYAFTTGSDDATCRLFDLRADQELLMYSHDNIICGITSVAFSRSGRLLLAGYDDFNCNIWDAMKGDRAGVLAGHDNRVSCLGVTDDGMAVATGSWDSFLKIWN
modifications: full-length
B7: O00469 (protein, UniProt O00469 1-737, looked up)
chain: MGGCTVKPQLLLLALVLHPWNPCLGADSEKPSSIPTDKLLVITVATKESDGFHRFMQSAKYFNYTVKVLGQGEEWRGGDGINSIGGGQKVRLMKEVMEHYADQDDLVVMFTECFDVIFAGGPEEVLKKFQKANHKVVFAADGILWPDKRLADKYPVVHIGKRYLNSGGFIGYAPYVNRIVQQWNLQDNDDDQLFYTKVYIDPLKREAINITLDHKCKIFQTLNGAVDEVVLKFENGKARAKNTFYETLPVAINGNGPTKILLNYFGNYVPNSWTQDNGCTLCEFDTVDLSAVDVHPNVSIGVFIEQPTPFLPRFLDILLTLDYPKEALKLFIHNKEVYHEKDIKVFFDKAKHEIKTIKIVGPEENLSQAEARNMGMDFCRQDEKCDYYFSVDADVVLTNPRTLKILIEQNRKIIAPLVTRHGKLWSNFWGALSPDGYYARSEDYVDIVQGNRVGVWNVPYMANVYLIKGKTLRSEMNERNYFVRDKLDPDMALCRNAREMGVFMYISNRHEFGRLLSTANYNTSHYNNDLWQIFENPVDWKEKYINRDYSKIFTENIVEQPCPDVFWFPIFSEKACDELVEEMEHYGKWSGGKHHDSRISGGYENVPTDDIHMKQVDLENVWLHFIREFIAPVTLKVFAGYYTKGFALLNFVVKYSPERQRSLRPHHDASTFTINIALNNVGEDFQGGGCKFLRYNCSIESPRKGWSFMHPGRLTHLHEGLPVKNGTRYIAVSFIDP
modifications: full-length
B8: Q96AQ6 (protein, UniProt Q96AQ6 1-731, looked up)
chain: MASCPDSDNSWVLAGSESLPVETLGPASRMDPESERALQAPHSPSKTDGKELAGTMDGEGTLFQTESPQSGSILTEETEVKGTLEGDVCGVEPPGPGDTVVQGDLQETTVVTGLGPDTQDLEGQSPPQSLPSTPKAAWIREEGRCSSSDDDTDVDMEGLRRRRGREAGPPQPMVPLAVENQAGGEGAGGELGISLNMCLLGALVLLGLGVLLFSGGLSESETGPMEEVERQVLPDPEVLEAVGDRQDGLREQLQAPVPPDSVPSLQNMGLLLDKLAKENQDIRLLQAQLQAQKEELQSLMHQPKGLEEENAQLRGALQQGEAFQRALESELQQLRARLQGLEADCVRGPDGVCLSGGRGPQGDKAIREQGPREQEPELSFLKQKEQLEAEAQALRQELERQRRLLGSVQQDLERSLQDASRGDPAHAGLAELGHRLAQKLQGLENWGQDPGVSANASKAWHQKSHFQNSREWSGKEKWWDGQRDRKAEHWKHKKEESGRERKKNWGGQEDREPAGRWKEGRPRVEESGSKKEGKRQGPKEPPRKSGSFHSSGEKQKQPRWREGTKDSHDPLPSWAELLRPKYRAPQGCSGVDECARQEGLTFFGTELAPVRQQELASLLRTYLARLPWAGQLTKELPLSPAFFGEDGIFRHDRLRFRDFVDALEDSLEEVAVQQTGDDDEVDDFEDFIFSHFFGDKALKKRSGKKDKHSQSPRAAGPREGHSHSHHHHHRG
modifications: full-length
B9: P20340 (protein, UniProt P20340 1-208, looked up)
chain: MSTGGDFGNPLRKFKLVFLGEQSVGKTSLITRFMYDSFDNTYQATIGIDFLSKTMYLEDRTVRLQLWDTAGQERFRSLIPSYIRDSTVAVVVYDITNVNSFQQTTKWIDDVRTERGSDVIIMLVGNKTDLADKRQVSIEEGERKAKELNVMFIETSAKAGYNVKQLFRRVAAALPGMESTQDRSREDMIDIKLEKPQEQPVSEGGCSC
modifications: full-length
B10: Q92499 (protein, UniProt Q92499 1-740, looked up)
chain: MAAFSEMGVMPEIAQAVEEMDWLLPTDIQAESIPLILGGGDVLMAAETGSGKTGAFSIPVIQIVYETLKDQQEGKKGKTTIKTGASVLNKWQMNPYDRGSAFAIGSDGLCCQSREVKEWHGCRATKGLMKGKHYYEVSCHDQGLCRVGWSTMQASLDLGTDKFGFGFGGTGKKSHNKQFDNYGEEFTMHDTIGCYLDIDKGHVKFSKNGKDLGLAFEIPPHMKNQALFPACVLKNAELKFNFGEEEFKFPPKDGFVALSKAPDGYIVKSQHSGNAQVTQTKFLPNAPKALIVEPSRELAEQTLNNIKQFKKYIDNPKLRELLIIGGVAARDQLSVLENGVDIVVGTPGRLDDLVSTGKLNLSQVRFLVLDEADGLLSQGYSDFINRMHNQIPQVTSDGKRLQVIVCSATLHSFDVKKLSEKIMHFPTWVDLKGEDSVPDTVHHVVVPVNPKTDRLWERLGKSHIRTDDVHAKDNTRPGANSPEMWSEAIKILKGEYAVRAIKEHKMDQAIIFCRTKIDCDNLEQYFIQQGGGPDKKGHQFSCVCLHGDRKPHERKQNLERFKKGDVRFLICTDVAARGIDIHGVPYVINVTLPDEKQNYVHRIGRVGRAERMGLAISLVATEKEKVWYHVCSSRGKGCYNTRLKEDGGCTIWYNEMQLLSEIEEHLNCTISQVEPDIKVPVDEFDGKVTYGQKRAAGGGSYKGHVDILAPTVQELAALEKEAQTSFLHLGYLPNQLFRTF
modifications: full-length

Test: Proteomics analysis (trypsin digest, LC-MS/MS) of hMSC ghosts and derived CDLs, conditioned or unconditioned by PC3 medium
Parameters: species or system human
Settings: LC-MS/MS peak area per protein; for Ratio of expression Cond. CDLs/Cond. Ghosts: CDLs derived from conditioned hMSCs versus conditioned ghosts; for Ratio of expression Cond Ghosts/Ghosts: hMSC ghosts conditioned by PC3 medium versus unconditioned ghosts

Row | Molecule | Ratio of expression Cond. CDLs/Cond. Ghosts [%] | Ratio of expression Cond Ghosts/Ghosts [%]
1 | B1 | 21 | 100
2 | B2 | 12 | 100
3 | B3 | 33 | 100
4 | B4 | 4 | 121
5 | B5 | 12 | 100
6 | B6 | 21 | 100
7 | B7 | 2 | 120
8 | B8 | 27 | 100
9 | B9 | 100 | 100
10 | B10 | 15 | 100
